PubChem BioAssay AID652243, Drosophila RNAi Screening Center – 2013
Aim: 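Knock-downs that decrease or increase androgen receptor reporter signal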 (primary screen). System: Drosophila S2R+ cells. Reagents: long dsRNA against Drosophila genes. Timing: 72 h (48 h, then 24 h hormone). Conditions: synthetic androgen R1881 at 10 nM for 24 h. Measured: 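Firefly light from an androgen-responsive reporter and Renilla control light per well, raw and unnormalised, for each of two replicates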. Direction: firefly reporter light: higher = more light from androgen-responsive reporter; Renilla control light: higher = more constitutive control signal (cell number, transfection). Call rule: 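Across duplicate plates, a knock-down whose log firefly/Renilla ratio shifted a set fold down or up from the GFP/LacZ control mean was a hit; the downward cut appears as both 1.5 and 3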. Meaning of the calls: active = hit: reporter lowered or raised; inactive = no hit.
In all, the deposit lists about 24,000 reagents; below is a random part of those that have a named target and a result. Of all reagents, 246 (1%) were called active. 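Plates not normalised; calls are printed but the firefly/Renilla ratio behind them is not deposited; fold cut for lowering reported inconsistently.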 The raw values are shown without normalisation. The numbers tell different reagents against one gene apart. A plus sign joins genes that one reagent is predicted to hit. The record does not give: the amount of reagent.

target gene,dsRNA no.,"firefly reporter light, replicate 1","firefly reporter light, replicate 2","Renilla control light, replicate 1","Renilla control light, replicate 2",outcome
CG10859,1,7.48e5,7.93e5,1.23e6,1.53e6,inactive
CG8060,1,1.18e6,6.67e5,2.83e6,1.91e6,inactive
CG33702,1,7.62e5,7.43e5,2.38e6,1.80e6,inactive
Sik2 (Salt-inducible kinase 2),1,3.39e5,3.76e5,4.13e6,3.74e6,inactive
Sik2 (Salt-inducible kinase 2),2,,,,,inactive
Sik2 (Salt-inducible kinase 2),3,,,,,inactive
scro (scarecrow),1,2.29e5,1.86e5,2.14e6,2.03e6,inactive
Cpr62Bc (Cuticular protein 62Bc),1,1.39e5,1.81e5,2.15e6,2.59e6,inactive
Cpr62Bc (Cuticular protein 62Bc),2,4.09e5,2.04e5,4.15e5,3.48e5,inactive
CG5498,1,31643,41972,3.09e5,3.61e5,inactive
CG32241,1,3.01e5,3.22e5,3.76e5,2.12e5,inactive
CG32241,2,4.06e5,2.81e5,1.91e6,1.78e6,inactive
CG32241,3,7.03e5,7.30e5,7.14e5,7.79e5,inactive
waw + bbx,1,6.97e5,4.42e5,5.90e5,5.14e5,inactive
CG10570 + CG42502,1,1.72e5,5.64e5,8.07e5,1.13e6,inactive
Nup93-2 (Nucleoporin 93kD-2),1,60973,28963,3.61e5,3.24e5,inactive
CG12321,1,1.04e5,92999,6.17e5,5.67e5,inactive
CG12321,2,5.20e5,4.38e5,1.58e6,1.17e6,inactive
CR30374 (pseudo),1,2.00e5,1.75e5,4.24e5,2.91e5,inactive
CG1847,1,1.06e5,1.07e5,7.78e5,8.44e5,inactive
Hsp23 (Heat shock protein 23),1,8.36e5,8.86e5,8.18e5,1.23e6,inactive
Hsp23 (Heat shock protein 23),2,3.25e5,5.86e5,8.11e5,1.25e6,inactive
synr (sayonara),1,2.16e5,2.01e5,2.81e6,1.81e6,inactive
Ip259 (Intronic Protein 259),1,9.80e5,8.36e5,1.52e6,1.74e6,inactive
CG11997,1,1.60e5,2.09e5,3.19e6,2.92e6,inactive
CG11997,2,2.83e5,2.83e5,5.06e5,5.62e5,inactive
CG16890 + p38b,1,,,,,inactive
pkm (Pinkman),1,97630,1.31e5,9.26e5,9.63e5,inactive
pkm (Pinkman),2,6.78e5,4.37e5,1.14e6,6.39e5,inactive
CG2906,1,3.28e5,3.15e5,1.84e6,1.54e6,inactive
CG14480,1,1.27e5,1.13e5,2.55e6,2.55e6,inactive
levy,1,3.10e5,2.55e5,1.99e6,1.30e6,inactive
CG5104,1,3.61e5,4.25e5,3.24e6,3.75e6,inactive
CG42340,1,1.05e5,1.36e5,1.94e6,2.55e6,inactive
CG42340,2,3.62e5,4.51e5,3.83e6,3.99e6,inactive
CG42340,3,1.14e5,1.26e5,2.97e6,2.38e6,inactive
CG42340,4,8.07e5,6.59e5,2.06e6,1.82e6,inactive
CG42340,5,6.79e5,9.00e5,7.11e5,1.06e6,inactive
Hsepi (Heparan sulfate C5-epimerase),1,3.81e5,3.67e5,2.38e6,2.30e6,inactive
Hsepi (Heparan sulfate C5-epimerase),2,3.07e5,3.46e5,6.24e5,6.82e5,inactive
beat-Vc (beaten path Vc),1,2.12e5,1.49e5,3.59e5,4.68e5,inactive
beat-Vc (beaten path Vc),2,66772,82970,9.47e5,1.62e6,inactive
CG6867,1,8.07e5,9.22e5,1.79e6,2.24e6,inactive
CG6867,2,2.92e5,2.89e5,7.91e5,7.02e5,inactive
BORCS6 (BLOC-1 related complex subunit 6),1,1.24e5,1.52e5,1.57e6,1.74e6,inactive
BORCS6 (BLOC-1 related complex subunit 6),2,9.26e5,7.09e5,9.53e5,8.24e5,inactive

Next part (8 carried over from the part before).
target gene,dsRNA no.,"firefly reporter light, replicate 1","firefly reporter light, replicate 2","Renilla control light, replicate 1","Renilla control light, replicate 2",outcome
Hsepi (Heparan sulfate C5-epimerase),1,3.81e5,3.67e5,2.38e6,2.30e6,inactive
Hsepi (Heparan sulfate C5-epimerase),2,3.07e5,3.46e5,6.24e5,6.82e5,inactive
beat-Vc (beaten path Vc),1,2.12e5,1.49e5,3.59e5,4.68e5,inactive
beat-Vc (beaten path Vc),2,66772,82970,9.47e5,1.62e6,inactive
CG6867,1,8.07e5,9.22e5,1.79e6,2.24e6,inactive
CG6867,2,2.92e5,2.89e5,7.91e5,7.02e5,inactive
BORCS6 (BLOC-1 related complex subunit 6),1,1.24e5,1.52e5,1.57e6,1.74e6,inactive
BORCS6 (BLOC-1 related complex subunit 6),2,9.26e5,7.09e5,9.53e5,8.24e5,inactive
CG13794,1,2.90e5,2.15e5,1.52e6,1.31e6,inactive
CG13794,2,1.01e6,9.49e5,9.97e5,1.00e6,inactive
yellow-e,1,1.97e5,2.30e5,3.85e5,5.74e5,inactive
yellow-e,2,45676,76656,1.36e6,1.66e6,inactive
Pgam5-2 (Phosphoglycerate mutase 5-2),1,1.83e5,1.65e5,1.25e6,1.24e6,inactive
Pgi (Phosphoglucose isomerase),1,8.90e5,7.94e5,1.05e6,1.25e6,inactive
w (white),1,2.66e5,2.31e5,2.69e6,2.57e6,inactive
w (white),2,8.12e5,7.75e5,1.16e6,1.06e6,inactive
Jhbp7 (Juvenile hormone binding protein 7),1,1.64e5,2.35e5,2.90e6,3.04e6,inactive
Jhbp7 (Juvenile hormone binding protein 7),2,4.18e5,3.26e5,1.15e6,9.18e5,inactive
fd102C (forkhead domain 102C),1,2.15e5,2.00e5,4.25e6,3.22e6,inactive
fd102C (forkhead domain 102C),2,4.22e5,3.66e5,6.76e5,6.26e5,inactive
CG12702,1,2.26e5,23813,8.00e5,1.03e5,inactive
CG12702,2,2.44e5,2.69e5,6.08e5,7.91e5,inactive
CG33966,1,53868,70448,6.47e5,6.13e5,inactive
CG33966,2,8.95e5,9.03e5,1.07e6,1.19e6,inactive
Taf2 (TBP-associated factor 2),1,6.88e5,4.58e5,1.07e6,1.30e6,inactive
Taf2 (TBP-associated factor 2),2,1.55e5,1.19e5,5.17e5,4.89e5,inactive
trol (terribly reduced optic lobes),1,3.53e5,4.13e5,4.17e6,3.65e6,inactive
trol (terribly reduced optic lobes),2,3.18e5,2.51e5,3.71e6,2.19e6,inactive
trol (terribly reduced optic lobes),3,4.65e5,4.66e5,1.16e6,1.26e6,inactive
Qsox3 (Quiescin sulfhydryl oxidase 3),1,2.55e5,3.51e5,3.34e6,3.51e6,inactive
SPR (Sex peptide receptor),1,2.73e5,3.91e5,2.06e6,2.42e6,inactive
SPR (Sex peptide receptor),2,2.47e5,3.14e5,2.69e6,3.00e6,inactive
SPR (Sex peptide receptor),3,8.85e5,1.05e6,1.96e6,1.92e6,inactive
Or63a (Odorant receptor 63a),1,1.50e5,1.84e5,2.97e6,3.29e6,inactive
magu,1,7.77e5,5.53e5,1.45e6,1.12e6,inactive
Coq5 (Coenzyme Q5),1,2.63e5,2.91e5,2.38e6,3.42e6,inactive
Coq5 (Coenzyme Q5),2,7.86e5,9.46e5,9.39e5,1.61e6,inactive
Coq5 (Coenzyme Q5),3,7.96e5,7.15e5,1.03e6,9.45e5,inactive
